Experiment in all cases: log2 fold change, soluble protein after heating vs DMSO (PISA); higher = thermal stabilisation; K562 lysate, 10 uM; active = over 0.2 and 3.5 SD of the protein, either way, in both replicates (recomputed)
Compound in test [1]: NCC(=O)Nc1ccc(-n2nc(C(F)(F)F)cc2-c2ccc3c(ccc4ccccc43)c2)cc1
Summed up:
(§1)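 Values give the log-two fold change in thermal stability against solvent controls, from duplicates. Crude K562 extract at 1 mg/mL protein, made by dounce homogenisation in PBS pH 7.4 with 1 mM MgCl2, was treated with 10 μM compound for 30 min. After 3 min heating across 48°C-58°C, aliquots were pooled, adjusted to 0.5% NP-40 at 4°C and centrifuged at 21,000xg for 90 min. The supernatant was measured by TMTpro 16plex LC-MS/MS with channel sums equalised.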

The chains behind the UniProt entries cited, without tags or fusion partners. Where a name states a change or a piece, a line headed by the entry shows the natural chain unless it says otherwise.
UniProt Q9H3L0: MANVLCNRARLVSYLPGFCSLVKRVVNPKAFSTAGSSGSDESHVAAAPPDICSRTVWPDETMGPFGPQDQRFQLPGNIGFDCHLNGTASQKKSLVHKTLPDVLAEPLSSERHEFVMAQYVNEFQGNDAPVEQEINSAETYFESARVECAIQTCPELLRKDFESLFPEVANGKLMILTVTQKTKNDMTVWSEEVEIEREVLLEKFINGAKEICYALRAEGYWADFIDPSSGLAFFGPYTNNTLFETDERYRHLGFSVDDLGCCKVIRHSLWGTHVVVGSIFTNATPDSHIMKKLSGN
UniProt Q70IA6: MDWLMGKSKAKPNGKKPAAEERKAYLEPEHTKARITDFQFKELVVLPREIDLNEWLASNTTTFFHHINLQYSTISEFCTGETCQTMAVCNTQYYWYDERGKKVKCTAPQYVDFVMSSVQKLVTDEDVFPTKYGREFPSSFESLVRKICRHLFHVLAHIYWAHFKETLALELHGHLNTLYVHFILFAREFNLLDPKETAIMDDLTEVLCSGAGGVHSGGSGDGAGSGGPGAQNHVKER
UniProt Q7Z6M3: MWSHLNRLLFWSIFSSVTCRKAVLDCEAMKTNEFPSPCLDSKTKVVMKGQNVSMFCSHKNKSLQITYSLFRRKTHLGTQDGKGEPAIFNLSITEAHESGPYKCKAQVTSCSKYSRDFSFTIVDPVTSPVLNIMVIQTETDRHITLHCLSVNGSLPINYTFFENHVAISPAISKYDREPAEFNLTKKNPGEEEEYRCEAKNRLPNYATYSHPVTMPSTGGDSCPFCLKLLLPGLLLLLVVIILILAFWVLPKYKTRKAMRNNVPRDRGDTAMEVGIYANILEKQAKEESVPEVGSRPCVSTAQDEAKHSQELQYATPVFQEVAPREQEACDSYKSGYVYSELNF
UniProt Q8N3F8: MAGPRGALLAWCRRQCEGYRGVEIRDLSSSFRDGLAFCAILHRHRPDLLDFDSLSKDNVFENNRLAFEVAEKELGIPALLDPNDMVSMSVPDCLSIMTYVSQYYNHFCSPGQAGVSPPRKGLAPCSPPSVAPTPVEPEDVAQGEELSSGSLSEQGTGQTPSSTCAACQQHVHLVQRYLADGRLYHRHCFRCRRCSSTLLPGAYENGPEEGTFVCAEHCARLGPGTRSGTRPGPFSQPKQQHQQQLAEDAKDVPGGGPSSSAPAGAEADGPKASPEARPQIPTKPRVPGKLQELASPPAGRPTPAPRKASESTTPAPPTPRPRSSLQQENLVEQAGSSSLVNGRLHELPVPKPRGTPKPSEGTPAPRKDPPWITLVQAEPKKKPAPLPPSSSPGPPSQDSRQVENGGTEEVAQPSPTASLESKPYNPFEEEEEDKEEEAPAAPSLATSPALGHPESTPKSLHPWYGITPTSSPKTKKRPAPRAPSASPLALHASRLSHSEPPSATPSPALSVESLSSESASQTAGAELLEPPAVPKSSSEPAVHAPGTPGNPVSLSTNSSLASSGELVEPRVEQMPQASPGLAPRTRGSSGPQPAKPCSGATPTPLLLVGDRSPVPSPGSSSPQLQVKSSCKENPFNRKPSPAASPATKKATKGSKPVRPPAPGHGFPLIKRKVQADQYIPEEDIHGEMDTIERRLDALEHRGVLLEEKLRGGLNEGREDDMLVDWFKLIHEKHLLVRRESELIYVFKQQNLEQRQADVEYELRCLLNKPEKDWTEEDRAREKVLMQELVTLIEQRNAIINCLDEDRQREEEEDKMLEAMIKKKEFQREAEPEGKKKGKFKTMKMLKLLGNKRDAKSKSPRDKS
UniProt Q9Y6X9: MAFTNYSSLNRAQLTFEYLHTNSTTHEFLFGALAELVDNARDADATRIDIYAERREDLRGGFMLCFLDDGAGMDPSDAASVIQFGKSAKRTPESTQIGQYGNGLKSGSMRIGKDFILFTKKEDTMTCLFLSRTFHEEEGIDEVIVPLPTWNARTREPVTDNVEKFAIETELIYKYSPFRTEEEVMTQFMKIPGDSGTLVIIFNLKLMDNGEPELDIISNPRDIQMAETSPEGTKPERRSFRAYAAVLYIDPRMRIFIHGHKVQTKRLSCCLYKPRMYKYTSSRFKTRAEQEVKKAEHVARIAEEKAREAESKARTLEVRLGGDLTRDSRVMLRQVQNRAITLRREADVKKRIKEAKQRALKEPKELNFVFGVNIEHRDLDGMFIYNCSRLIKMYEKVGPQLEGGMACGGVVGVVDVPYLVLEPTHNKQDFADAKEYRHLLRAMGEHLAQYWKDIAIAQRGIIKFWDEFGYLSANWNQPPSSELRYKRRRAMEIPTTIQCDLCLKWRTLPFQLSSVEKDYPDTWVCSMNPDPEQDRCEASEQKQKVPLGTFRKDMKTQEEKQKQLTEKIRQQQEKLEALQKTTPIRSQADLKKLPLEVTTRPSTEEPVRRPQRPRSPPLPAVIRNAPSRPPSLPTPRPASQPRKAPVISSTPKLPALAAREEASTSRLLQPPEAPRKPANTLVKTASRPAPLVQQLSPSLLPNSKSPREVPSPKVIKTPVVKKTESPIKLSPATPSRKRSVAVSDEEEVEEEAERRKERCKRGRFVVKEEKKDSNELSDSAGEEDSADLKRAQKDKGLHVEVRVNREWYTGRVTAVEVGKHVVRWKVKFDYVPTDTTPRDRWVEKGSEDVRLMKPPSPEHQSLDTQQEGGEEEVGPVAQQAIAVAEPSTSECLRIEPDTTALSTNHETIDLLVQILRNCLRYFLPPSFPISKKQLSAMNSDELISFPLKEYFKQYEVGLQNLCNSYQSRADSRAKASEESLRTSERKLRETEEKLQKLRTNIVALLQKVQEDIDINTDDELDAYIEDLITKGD
UniProt O75970: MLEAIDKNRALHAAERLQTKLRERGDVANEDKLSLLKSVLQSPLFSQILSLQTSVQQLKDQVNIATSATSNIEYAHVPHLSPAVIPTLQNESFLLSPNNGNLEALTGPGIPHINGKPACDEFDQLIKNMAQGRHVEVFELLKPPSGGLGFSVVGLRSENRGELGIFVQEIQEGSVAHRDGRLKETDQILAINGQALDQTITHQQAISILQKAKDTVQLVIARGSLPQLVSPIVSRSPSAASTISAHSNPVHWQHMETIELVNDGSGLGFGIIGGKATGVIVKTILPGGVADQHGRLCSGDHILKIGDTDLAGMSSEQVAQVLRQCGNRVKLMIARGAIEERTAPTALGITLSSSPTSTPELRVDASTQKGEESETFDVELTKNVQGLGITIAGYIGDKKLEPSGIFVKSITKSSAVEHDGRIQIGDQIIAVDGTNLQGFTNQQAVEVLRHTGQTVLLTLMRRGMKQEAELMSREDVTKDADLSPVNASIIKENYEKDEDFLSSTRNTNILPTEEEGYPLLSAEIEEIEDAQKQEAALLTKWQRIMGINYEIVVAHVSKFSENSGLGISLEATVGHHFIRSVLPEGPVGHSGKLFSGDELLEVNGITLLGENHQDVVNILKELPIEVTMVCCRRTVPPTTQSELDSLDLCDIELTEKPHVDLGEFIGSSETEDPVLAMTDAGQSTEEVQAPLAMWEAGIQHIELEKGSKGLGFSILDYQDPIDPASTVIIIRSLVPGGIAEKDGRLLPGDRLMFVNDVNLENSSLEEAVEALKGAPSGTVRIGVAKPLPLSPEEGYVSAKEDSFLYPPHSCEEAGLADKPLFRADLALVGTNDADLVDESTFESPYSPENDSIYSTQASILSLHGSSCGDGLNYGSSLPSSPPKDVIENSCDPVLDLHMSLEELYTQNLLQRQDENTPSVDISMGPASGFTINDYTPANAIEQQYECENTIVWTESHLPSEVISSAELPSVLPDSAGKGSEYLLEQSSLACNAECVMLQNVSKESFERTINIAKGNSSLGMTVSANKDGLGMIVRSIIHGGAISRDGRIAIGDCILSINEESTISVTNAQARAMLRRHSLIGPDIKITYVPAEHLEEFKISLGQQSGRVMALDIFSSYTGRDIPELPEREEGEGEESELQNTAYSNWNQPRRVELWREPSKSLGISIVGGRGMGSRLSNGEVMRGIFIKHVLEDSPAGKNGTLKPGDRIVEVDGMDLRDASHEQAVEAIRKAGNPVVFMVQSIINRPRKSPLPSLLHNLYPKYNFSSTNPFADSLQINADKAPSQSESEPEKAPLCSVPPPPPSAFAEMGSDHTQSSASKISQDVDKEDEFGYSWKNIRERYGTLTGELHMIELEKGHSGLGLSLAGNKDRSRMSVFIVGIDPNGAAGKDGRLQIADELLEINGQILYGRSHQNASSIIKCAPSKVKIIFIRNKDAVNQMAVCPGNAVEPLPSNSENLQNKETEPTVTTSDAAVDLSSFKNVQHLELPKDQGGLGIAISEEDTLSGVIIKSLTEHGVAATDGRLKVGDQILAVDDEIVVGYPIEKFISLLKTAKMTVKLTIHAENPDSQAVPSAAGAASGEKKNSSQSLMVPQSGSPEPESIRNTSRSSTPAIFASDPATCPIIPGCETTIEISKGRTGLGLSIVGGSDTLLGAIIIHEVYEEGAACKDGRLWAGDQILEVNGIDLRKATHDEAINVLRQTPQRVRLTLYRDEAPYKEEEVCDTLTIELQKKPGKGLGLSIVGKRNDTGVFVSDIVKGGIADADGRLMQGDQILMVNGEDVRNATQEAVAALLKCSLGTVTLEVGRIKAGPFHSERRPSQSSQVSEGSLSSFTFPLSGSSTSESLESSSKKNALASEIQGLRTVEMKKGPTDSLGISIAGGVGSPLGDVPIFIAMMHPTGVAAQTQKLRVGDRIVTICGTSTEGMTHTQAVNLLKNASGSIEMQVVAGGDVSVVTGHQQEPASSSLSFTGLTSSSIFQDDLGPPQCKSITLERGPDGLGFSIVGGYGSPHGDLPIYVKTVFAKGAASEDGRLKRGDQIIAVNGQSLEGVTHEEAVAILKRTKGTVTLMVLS
UniProt Q14165: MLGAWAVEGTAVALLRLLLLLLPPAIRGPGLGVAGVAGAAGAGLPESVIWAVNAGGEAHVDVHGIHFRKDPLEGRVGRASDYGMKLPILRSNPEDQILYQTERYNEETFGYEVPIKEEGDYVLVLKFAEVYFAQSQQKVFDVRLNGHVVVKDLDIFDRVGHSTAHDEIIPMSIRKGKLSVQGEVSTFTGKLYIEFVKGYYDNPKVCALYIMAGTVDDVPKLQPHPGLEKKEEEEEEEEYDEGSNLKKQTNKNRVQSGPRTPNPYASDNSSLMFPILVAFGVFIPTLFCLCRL
UniProt A9UHW6: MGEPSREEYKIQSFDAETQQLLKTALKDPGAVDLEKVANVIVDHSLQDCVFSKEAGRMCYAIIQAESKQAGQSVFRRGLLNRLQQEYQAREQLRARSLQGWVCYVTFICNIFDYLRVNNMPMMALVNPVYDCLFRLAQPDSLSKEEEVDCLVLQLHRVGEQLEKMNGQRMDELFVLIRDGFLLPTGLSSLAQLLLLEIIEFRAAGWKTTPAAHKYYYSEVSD

Compound in test [2]: O=C(CCCCCCC(=O)Nc1ccccc1)NO [vorinostat]
The method in brief:
as §1

Compound in test [3]: O=C(O)c1ccc2c(c1)nc(Nc1cccc(Cl)c1)c1ccncc12 [silmitasertib]
The method in brief: as §1

Compound in test [4]: O=C1NC(=O)C(c2cnc3ccccn23)=C1c1cn2c3c(cc(F)cc13)CN(C(=O)N1CCCCC1)CC2
Summed up: as §1

Compound in test [5]: c1cn2cc(-c3ccc4cn[nH]c4c3)nc(Nc3ccc(N4CCOCC4)cc3)c2n1 [entospletinib]
The method in brief: as §1

The list shows a part of the results.

On to MICB, A0A140T979, for which the log2 fold change in test [1] is inactive: 0.068; in test [2], inactive: 0.196; in test [3] it was inactive: -0.121; in test [4], inactive: 0.021; in test [5] it was inactive: 0.35.
For MMADHC (UniProt Q9H3L0), the log2 fold change in test [1] was inactive: -0.041; in test [2], inactive: -0.178; in test [3], inactive: -0.028; in test [4], inactive: 0.046; in test [5] it was inactive: -0.011.
In the same order, the values of MOB2 isoform 3 (UniProt Q70IA6) are inactive: -0.083, inactive: -0.03, inactive: 0.009, inactive: 0.012 and inactive: 0.
In the same order, the values of MILR1 (UniProt Q7Z6M3) are inactive: -0.005, inactive: -0.221, inactive: 0.066, inactive: 0.021 and inactive: -0.279.
Regarding MICALL1 (UniProt Q8N3F8), the log2 fold change in test [1] was inactive: 0.011; in test [2], inactive: -0.119; in test [3], inactive: -0.017; in test [4], inactive: -0.003; in test [5], inactive: -0.019.
Regarding MORC2 (UniProt Q9Y6X9), the log2 fold change was inactive: 0.014 in test [1]; active: -0.328 in test [2]; inactive: 0.103 in test [3]; inactive: -0.015 in test [4]; inactive: 0.013 in test [5].
With MPDZ (UniProt O75970), the log2 fold change in test [1] was inactive: 0.058; in test [2] it was active: -0.59; in test [3], inactive: 0.066; in test [4], inactive: 0.177; in test [5], inactive: -0.111.
For the target MLEC (UniProt Q14165), the log2 fold change in test [1] is inactive: -0.041; in test [2], inactive: 0.08; in test [3], inactive: 0.034; in test [4], inactive: -0.01; in test [5], inactive: -0.01.
As to MIF4GD isoform 3 (UniProt A9UHW6), the log2 fold change was inactive: 0.008 in test [1]; active: -0.232 in test [2]; inactive: 0.018 in test [3]; inactive: -0.012 in test [4]; inactive: -0.032 in test [5].

The record behind these values is the supplement of paper PMC10849652.
